Most values lie at the floor of the assay. Slopes are relative: functional sequences can read slightly below zero.

The series has as its system Saccharomyces cerevisiae PS128 hsf1 delta, HSF1(1-493) fusion. Description: growth estimate (transactivation domain function in HSF1 fusion, heat-shock survival) (a.u. (slope of normalised read count over time)); higher = stronger growth at 37°C, i.e. more transactivation activity. Particulars: library: random library. The method, then:
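Random 60-nt DNA library encoding peptides of up to 20 aa, fused to the C-terminus of yeast HSF1 residues 1-493 (C-terminal TAD deleted) and expressed from the native HSF1 promoter on a CEN plasmid in hsf1-deleted S. cerevisiae PS128. Cells were selected at 37°C on -trp 5-FOA plates for 0, 2, 4, 6 and 8 days and amplicons were sequenced. Growth estimate is the slope of a robust linear fit of total-sum-normalised read counts (normalised to the first time point) over time, using at least 2 replicates. Sequences are classed functional (TAD activity) above a threshold of -0.13, set from stop-codon control sequences.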
Consider KLGKCKIRESCFFFIFPVPG, for which the growth estimate was less than -0.25.
As for STADGIVCFG, the growth estimate is less than -0.25.
For VSFGPIR the value was less than -0.25; for DSHRTYWAYTSGSD, less than -0.25; for MRDATERGDRGNT, less than -0.25.
On to GRSEYTYSLGHLC, for which the growth estimate was less than -0.25.
Turning to RSALGQDTRAGVTLTHCTLR, the growth estimate was less than -0.25.
On to LFPPVGRSQDTAERYLNSAR, for which the growth estimate was less than -0.25.
As for CIPCGAIRRPAASPSVHSKS, the growth estimate is less than -0.25.
With RAVIPRMCQQFLSNCLLEWS, the growth estimate is less than -0.25.
Turning to HPKTRHIRGIGGRGSSYIYR, the growth estimate is less than -0.25.
YYR: the growth estimate is less than -0.25.
Turning to LTHQLEN, the growth estimate was less than -0.25.
As for LRLGHKLSGGIRLDKYGGPI, the growth estimate is less than -0.25.
The figure for VSRSGETTQINLTQTSEGGR is less than -0.25; for SIRFSRVDSCAQ it is less than -0.25; for VDSGDNG it is -0.246.
For SSTVLSLVNLFRTLRQR the value was less than -0.25.
For GQTWRASTRRGLRPRNLESG, the growth estimate was less than -0.25.
The figure for GFQLRIYSAQCAPV is less than -0.25.
Take APTCARRNSISISGPSETRG: the growth estimate is less than -0.25.
The figure for QSPQRQGQCFSGQSGDFYVL is less than -0.25.
The figure for NPRTRMGKDLREIGSYYSET is less than -0.25; for LGHFGA it is less than -0.25.
IYETLSRANGPGDPPELPAL: the growth estimate is less than -0.25.
Take DFGWWTGWAWQSRHHSEAEW: the growth estimate is -0.122.
With LRVQRR, the growth estimate was less than -0.25.
As to PWYVPTQAFR, the growth estimate was less than -0.25.
For PACLRRLRKENVRKCAPWCN the value was less than -0.25.
In the case of RTWPARLLVRGSTTCVMSRT, the growth estimate was less than -0.25.
Take VNHSLILVQLFREHKKTP: the growth estimate is less than -0.25.
For CMA the value was less than -0.25.
For EDLGYCRGLPSWELSL the value was -0.159.
Take KDILLL: the growth estimate is less than -0.25.
Consider RLTGRRGWVP, for which the growth estimate was less than -0.25.
RSTGLEISYRRDS: the growth estimate is less than -0.25.
For the substance RWGSILGPCSTELRLLAYHH, the growth estimate was less than -0.25.
The figure for SNTRAWYGGHCFSS is less than -0.25.
Consider KRCCLRSFP, for which the growth estimate was less than -0.25.
The figure for LSRSTRIQSIRGG is less than -0.25; for RSP it is less than -0.25; for AFSSCAGLKGHAVCIIS it is less than -0.25.
For ASASRMAVWTVLSYILPD, the growth estimate was less than -0.25.
On to IVLYWRAH, for which the growth estimate was less than -0.25.
Take FSQ: the growth estimate was -0.214.
For MAAGPLSPALSRYSAAYNAR, the growth estimate was less than -0.25.
Turning to GPYLVFL, the growth estimate was less than -0.25.
The figure for PDHRSYG is less than -0.25; for PGTRVKSAKTSMITPLPKD it is less than -0.25.
Regarding HHMVKSISGESPSV, the growth estimate is less than -0.25.
For the substance RQNQI, the growth estimate is less than -0.25.
Consider CSLTFISGNVNVLSIEKREP, for which the growth estimate was less than -0.25.
With RFWLKKSPVSVEKIGFFMAD, the growth estimate was less than -0.25.
The figure for QSAL is less than -0.25.
As to SKGRFQE, the growth estimate was less than -0.25.
With PWQGRTHA, the growth estimate was less than -0.25.
In the case of SWTHCFESLGGVGLHFAINE, the growth estimate is -0.204.
On to VTVSEVPRC, for which the growth estimate was less than -0.25.
For VIQK, the growth estimate is less than -0.25.
For RSFL the value was less than -0.25; for DTGELRHVRADGGWHRMDVS, less than -0.25; for CIRTAVRALGNLVPMEKGWA, less than -0.25.
For TILVNQSVIR the value was less than -0.25.
Turning to ENQDVNRGWKIEPAPATTLS, the growth estimate is less than -0.25.
Turning to VTLVRLPFASHVNEPILTHI, the growth estimate was less than -0.25.
As to PFRM, the growth estimate is less than -0.25.
With HYQSARSVYLKMQQGCDRVG, the growth estimate was less than -0.25.
On to AIQGLGLFVLRLHFYSVSTR, for which the growth estimate was less than -0.25.
Take VIGRPVNGSR: the growth estimate is less than -0.25.
Regarding RTRTQAVLA, the growth estimate is less than -0.25.
As for SFSLRRPPRDNSGVHCPRGP, the growth estimate was less than -0.25.
Turning to VWRLTVVKWTVGGFPLGCTS, the growth estimate is less than -0.25.
Regarding GSWPL, the growth estimate was less than -0.25.
Consider IGDPGTSGWLARVGTALQDV, for which the growth estimate is less than -0.25.
On to RIIRETLNLRQAPVQILSRL, for which the growth estimate was less than -0.25.
Turning to SRSSQQPDTSSAFSWVVGVM, the growth estimate was less than -0.25.
QVAG: the growth estimate is less than -0.25.
For PLRDPKAAC the value was less than -0.25; for VVF, less than -0.25.
As to SGLHSSRTLP, the growth estimate is less than -0.25.
TTKVSFVRVGNRTSCLRVHL: the growth estimate was less than -0.25.
As to RCEHKTACKECVLQRTTSIH, the growth estimate was less than -0.25.
For FSSVPQKICLLQHRLNSSWQ, the growth estimate was less than -0.25.
With QSHDALSDAVCASI, the growth estimate was less than -0.25.
Consider SRSVERGLDKERVE, for which the growth estimate was less than -0.25.
As to QMGCSEPAGRGEALYPVE, the growth estimate is less than -0.25.
Consider LDGSRHRRCCPPNRPTCLSK, for which the growth estimate was less than -0.25.
The figure for ARCTFTRMEVT is less than -0.25; for TSAEPAYACAFVGRR it is less than -0.25.
For FLLWASCTECGCRLSAGVSL the value was less than -0.25; for GRAVITGAYDGFDCWEADRK, less than -0.25.
GAASQYRLELRYGGKRAKVY: the growth estimate was less than -0.25.
In the case of ASPVGRMIGEPLLREAQFVS, the growth estimate was less than -0.25.
With MVQYILRAK, the growth estimate was less than -0.25.
The figure for SSGQELPAAPQGPSRSS is less than -0.25; for PRKPL it is less than -0.25.
The figure for LIIPNLDVIACQ is less than -0.25; for CSGGGRLRLL it is less than -0.25.
SCVPVIVLSASDTGAIAYGS: the growth estimate is -0.246.
For the substance ASKAEISGLDGLGLPTPYAL, the growth estimate was less than -0.25.
As to CQGLWEPCQYLPHVFEQPGN, the growth estimate is -0.211.
Take IDTQMPP: the growth estimate was less than -0.25.
On to ECFIVDAERYWPMASKVTAG, for which the growth estimate was less than -0.25.
Turning to SYPG, the growth estimate is less than -0.25.
As for RSRHWLFCRASTDSRIVSCQ, the growth estimate is less than -0.25.
Turning to VWCPSAVGETGRLGTKLLLG, the growth estimate is less than -0.25.
The figure for QGMNMYSAGFRRSPGILDRY is less than -0.25.
As to EFMFYYLVINPSPGSFGGDW, the growth estimate is less than -0.25.
In the case of NTIGIMWHQERMAGESQWIV, the growth estimate is less than -0.25.
For the substance NYK, the growth estimate was less than -0.25.
For the substance EIGYIGSKRTQPPTCMVLGS, the growth estimate was less than -0.25.
The figure for GTPR is less than -0.25; for PLLYAAVSLFWMCRGTCVSM it is less than -0.25.
In the case of WGYWMRDMNQCLVGCSADTG, the growth estimate was less than -0.25.
For IPLLQLTVNRRECRTLNRRI the value was less than -0.25.
Regarding KDLTVMAVSGW, the growth estimate is less than -0.25.

The values above are taken from the supplement of paper PMC5949888.
